Data as given in US12324927B2, “Methods and systems for photodynamic therapy calculations” (THE TRUSTEES OF THE UNIVERSITY OF PENNSYLVANIA, priority 2018, dated 2025).

Experiment: Photofrin concentration and PDT dose at pleural cavity sites measured by fluorescence with 4-channel PDT dose dosimeter during Photofrin-mediated pleural PDT
Format: in vivo, human
Experimental: The patients in this study were enrolled in a Phase II randomized clinical trial of Photofrin-mediated PDT for pleural mesothelioma treatment. Having given informed consent, they were administered Photofrin (Pinnacle Biologics, Chicago, IL, USA) at 2 mg kg^−1 of body weight as an intravenous infusion 24 h prior to intra-operative PDT. PDT was performed in the operating room, immediately following radical pleurectomy and debulking of tumor. PDT treatment was performed with 632 nm light provided by a KTP-pumped dye laser (model 630 XP, Laserscope, Inc., San Jose, CA, USA) to a total fluence of 60 J cm^−2. Light was delivered to the pleural cavity via an optical fiber inserted into modified endotracheal tube filled with 0.1% intralipid to produce an extended isotropic light source. The pleural cavity was filled with 0.01% intralipid solution during PDT treatment. As the intralipid solution became contaminated with blood as observed by the treating physician, it was repeatedly removed by suction pump and replaced with fresh solution to minimize light absorption by hemoglobin. The light source was circulated around in the lung cavity by the physician during the PDT. The instantaneous light fluence rate and the cumulative light dose were monitored continuously using 8 isotropic detectors (Medlight, Switzerland) sutured to 8 strategic locations within the pleural cavity wall. […] Light fluence rate at surface is measured directly with an isotropic detector placed on the surface. The measured light fluence rate is not reflective of intra-tissue light fluence rate, which may be higher or lower than the value on the tissue surface depending on the tissue optical properties. Fluorescence collected by the fibers was collimated and passed through long pass filters (Semrock, Inc., Rochester, NY, USA) to block the treatment light before the transmitted fluorescence was recorded by the spectrometers, whereas no filtration was required for the treatment-light signal in the other arm of the bifurcated fibers. […] In this study, Channels 1 to 4 are used to measure fluence rate of the treatment light and Photofrin fluorescence concurrently, while Channel 9 to 12 are used to measure light fluence rate only.
Diffuse reflectance measurements were acquired before and after PDT treatment using a specially designed fiber optic-based contact probe comprising (e.g., or consisting of) one source fiber, coupled to an air-cooled quartz-tungsten-halogen (QTH) lamp (Avalight HAL-S, Avantes, Inc., Louisville, CO, USA), and 9 detection fibers spaced at distances from 1.4 to 8.7 mm from the source. […] Background signal was measured in the same tissue with the white light source turned off, and then subtracted from each measurement. […]

[1] = 22 sites in pleural cavity of 8 patients
[2] = 22 sites, 8 patients, 60 J cm^−2

Substance: Photofrin
- difference of PDT doses inter-patient [1]: 8.3 times
- difference of PDT doses intra-patient [1]: 2.9 times
- mean PDT dose of all sites [2]: 390.1±198.9 MJ cm^−2
- median PDT dose of all sites [2]: 333.6±198.9 μMJ cm^−2
